For this test, the target named is precursor Nedd8 (UniProt Q15843 1-81). The test is described as follows: FRET.

Protein sequences, listed by entry. Tags and fused reporters are not part of them.
UniProt Q15843, whole entry: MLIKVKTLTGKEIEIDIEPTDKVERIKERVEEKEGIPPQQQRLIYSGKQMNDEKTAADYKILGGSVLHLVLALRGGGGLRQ

The Kd is the constant that tells how readily two partners part at equilibrium.

B1: eDEN1-FRET-D10N (designed binder)
chain: MPSSHHHHHHSSGLVPRGSHMDPVVLSYMNSLLRQSDVSLLDPPSWLNDHIIGFAFEYFANSQFHDCSDHVSFISPEVTQFIKCTSNPGGSGGMVSKGEELFTGVVPILVELDGDVNGHKFSVSGEGEGDATYGKLTLKFICTTGKLPVPWPTLVTTLSWGVQCFARYPDHMKQHDFFKSAMPEGYVQERTIFFKDDGNYKTRAEVKFEGDTLVNRIELKGIDFKEDGNILGHKLEYNYFSDNVYITADKQKNGIKANFKIRHNIEDGGSTGFEIPDDVPLPAGWEMAKTSSGQRYFKNHIDQTTTWQDPRKAGGGGVQLADHYQQNTPIGDGPVLLPDNHYLSTQSKLSKDPNEKRDHMVLLEFVTAAGITLGMGGSGGAEIAMFLEPLDLPNKRVVFLAINDNSNQAAGGTHWSLLVYLQDKNSFFHYDSHSRSNSVHAKQVAEKLEAFLGRKGDKLAFVEEKAPAQQNDYDAGMYVICNTEALCQNFFRQQTESLLQLLTPAYITKKRGEWKDLITTLAKTGMVSKGEELFTGVVPILVELDGDVNGHKFSVSGEGEGDATYGKLTLKFICTTGKLPVPWPTLVTTFGYGLMCFARYPDHMKQHDFFKSAMPEGYVQERTIFFKDDGNYKTRAEVKFEGDTLVNRIELKGIDFKEDGNILGHKLEYNYNSHNVYIMADKQKNGIKVNFKIRHNIEDGSPLPPYTTGGSGSQSGSGTGSESGSTGGSVQLADHYQQNTPIGDGPVLLPDNHYLSYQSKLSKDPNEKRDHMVLLEFVTAAGITLGMDELYK
B1 gave a Kd of 144 µM.

Source of the values: publication PMC11443517 (2024).
